Results published in paper PMC9039026.
These are yes or no findings as the source states them, for the method shown. In cells and extracts the contact can be indirect. Here binding means that the protein was enriched with, or labelled near, the bait; the list need not be complete.

Chains of the proteins cited; added tags and fusions are not shown. Lines headed by an entry give the natural chain unless they say otherwise; changes in a name come on top.
UniProt Q8IJ72: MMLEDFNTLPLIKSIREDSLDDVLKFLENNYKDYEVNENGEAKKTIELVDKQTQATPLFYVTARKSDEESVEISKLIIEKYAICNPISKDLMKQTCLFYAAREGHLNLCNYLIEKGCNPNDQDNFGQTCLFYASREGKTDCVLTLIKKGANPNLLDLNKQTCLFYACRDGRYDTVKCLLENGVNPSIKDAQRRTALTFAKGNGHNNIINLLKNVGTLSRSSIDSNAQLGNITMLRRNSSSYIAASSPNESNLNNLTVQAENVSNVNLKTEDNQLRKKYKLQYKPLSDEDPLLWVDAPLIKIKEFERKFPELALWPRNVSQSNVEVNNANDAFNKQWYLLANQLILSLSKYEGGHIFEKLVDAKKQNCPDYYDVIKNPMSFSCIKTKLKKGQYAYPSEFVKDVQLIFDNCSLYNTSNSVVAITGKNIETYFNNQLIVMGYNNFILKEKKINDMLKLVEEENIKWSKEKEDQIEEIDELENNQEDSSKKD
UniProt Q8I5S4: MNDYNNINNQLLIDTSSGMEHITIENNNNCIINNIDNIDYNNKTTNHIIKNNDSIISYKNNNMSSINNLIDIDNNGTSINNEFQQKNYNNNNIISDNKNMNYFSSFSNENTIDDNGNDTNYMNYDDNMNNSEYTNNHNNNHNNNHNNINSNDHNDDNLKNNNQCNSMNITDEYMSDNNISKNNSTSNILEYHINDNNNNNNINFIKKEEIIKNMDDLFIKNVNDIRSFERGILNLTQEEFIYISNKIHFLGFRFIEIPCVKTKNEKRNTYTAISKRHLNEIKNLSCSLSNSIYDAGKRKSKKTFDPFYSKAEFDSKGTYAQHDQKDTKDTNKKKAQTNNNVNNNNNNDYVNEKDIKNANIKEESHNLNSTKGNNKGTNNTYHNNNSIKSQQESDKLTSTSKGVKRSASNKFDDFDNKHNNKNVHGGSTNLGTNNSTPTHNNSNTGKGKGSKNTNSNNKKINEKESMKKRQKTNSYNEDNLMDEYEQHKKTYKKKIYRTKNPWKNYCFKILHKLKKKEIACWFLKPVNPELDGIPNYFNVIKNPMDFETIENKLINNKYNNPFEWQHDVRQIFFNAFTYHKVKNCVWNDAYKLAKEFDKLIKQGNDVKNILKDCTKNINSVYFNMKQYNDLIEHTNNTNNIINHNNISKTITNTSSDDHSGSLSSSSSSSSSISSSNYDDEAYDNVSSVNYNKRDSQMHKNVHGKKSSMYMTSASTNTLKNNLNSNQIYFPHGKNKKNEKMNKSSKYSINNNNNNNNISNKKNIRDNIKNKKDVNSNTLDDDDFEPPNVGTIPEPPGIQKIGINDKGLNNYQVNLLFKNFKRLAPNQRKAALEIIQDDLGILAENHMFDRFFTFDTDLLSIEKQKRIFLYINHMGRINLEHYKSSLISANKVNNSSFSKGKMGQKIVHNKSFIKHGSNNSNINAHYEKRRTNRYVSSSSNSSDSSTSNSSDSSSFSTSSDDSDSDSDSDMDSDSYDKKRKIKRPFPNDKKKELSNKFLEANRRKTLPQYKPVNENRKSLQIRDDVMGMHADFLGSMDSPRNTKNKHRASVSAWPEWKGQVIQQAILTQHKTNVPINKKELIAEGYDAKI
UniProt Q8IB66: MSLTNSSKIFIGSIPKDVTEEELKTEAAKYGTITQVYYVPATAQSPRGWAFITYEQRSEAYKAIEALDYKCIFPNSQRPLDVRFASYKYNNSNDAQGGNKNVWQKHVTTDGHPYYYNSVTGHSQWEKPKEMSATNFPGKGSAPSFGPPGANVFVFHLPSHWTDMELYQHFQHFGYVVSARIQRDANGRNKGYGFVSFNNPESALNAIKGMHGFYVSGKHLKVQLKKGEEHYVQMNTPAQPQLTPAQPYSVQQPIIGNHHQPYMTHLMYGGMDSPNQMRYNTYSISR

Molecular target: PfBDP1HA (P. falciparum bromodomain protein 1, HA-tagged) (P. falciparum) (UniProt Q8IJ72)
Experiment: affinity purification with mass spectrometry; co-IP with anti-HA or anti-Ty from nuclear extracts of PfBDP1HA::PfBDP7BirATy parasites and with anti-Ty from PfBDP7Ty_GlmS parasites; LC-MS of eluates; negative controls anti-Ty IP in 3D7 wild type and non-immune IgG

binding	Substance
binds	PfBDP2 (P. falciparum bromodomain protein 2) (from UniProt Q8I5S4)
binds	predicted RNA-binding protein Pf3D7_0823200 (from UniProt Q8IB66)
